# Data from the supplement of paper PMC12067093, “Discovery and optimisation of a covalent ligand for TRIM25 and its application to targeted protein ubiquitination” (Chemical Science, 2025).
# The chains behind the UniProt entries cited, without tags or fusion partners. Where a name states a change or a piece, a line headed by the entry shows the natural chain unless it says otherwise.
# UniProt Q15326: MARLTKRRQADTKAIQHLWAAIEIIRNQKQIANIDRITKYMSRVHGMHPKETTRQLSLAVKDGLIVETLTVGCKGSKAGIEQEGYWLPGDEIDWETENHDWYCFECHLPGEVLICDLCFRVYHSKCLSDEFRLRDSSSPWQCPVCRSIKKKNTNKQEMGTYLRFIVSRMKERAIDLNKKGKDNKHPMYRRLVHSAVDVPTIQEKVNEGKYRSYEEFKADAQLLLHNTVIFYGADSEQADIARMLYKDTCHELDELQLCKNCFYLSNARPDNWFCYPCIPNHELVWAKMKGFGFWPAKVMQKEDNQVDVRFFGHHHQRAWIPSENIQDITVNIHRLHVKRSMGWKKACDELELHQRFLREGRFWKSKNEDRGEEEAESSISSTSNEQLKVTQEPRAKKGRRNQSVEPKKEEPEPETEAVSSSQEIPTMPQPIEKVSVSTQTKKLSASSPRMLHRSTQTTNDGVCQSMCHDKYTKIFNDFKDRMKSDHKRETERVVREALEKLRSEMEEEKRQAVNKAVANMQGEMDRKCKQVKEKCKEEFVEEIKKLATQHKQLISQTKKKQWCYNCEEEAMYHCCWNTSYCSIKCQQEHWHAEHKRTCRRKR
# UniProt Q9ULU4: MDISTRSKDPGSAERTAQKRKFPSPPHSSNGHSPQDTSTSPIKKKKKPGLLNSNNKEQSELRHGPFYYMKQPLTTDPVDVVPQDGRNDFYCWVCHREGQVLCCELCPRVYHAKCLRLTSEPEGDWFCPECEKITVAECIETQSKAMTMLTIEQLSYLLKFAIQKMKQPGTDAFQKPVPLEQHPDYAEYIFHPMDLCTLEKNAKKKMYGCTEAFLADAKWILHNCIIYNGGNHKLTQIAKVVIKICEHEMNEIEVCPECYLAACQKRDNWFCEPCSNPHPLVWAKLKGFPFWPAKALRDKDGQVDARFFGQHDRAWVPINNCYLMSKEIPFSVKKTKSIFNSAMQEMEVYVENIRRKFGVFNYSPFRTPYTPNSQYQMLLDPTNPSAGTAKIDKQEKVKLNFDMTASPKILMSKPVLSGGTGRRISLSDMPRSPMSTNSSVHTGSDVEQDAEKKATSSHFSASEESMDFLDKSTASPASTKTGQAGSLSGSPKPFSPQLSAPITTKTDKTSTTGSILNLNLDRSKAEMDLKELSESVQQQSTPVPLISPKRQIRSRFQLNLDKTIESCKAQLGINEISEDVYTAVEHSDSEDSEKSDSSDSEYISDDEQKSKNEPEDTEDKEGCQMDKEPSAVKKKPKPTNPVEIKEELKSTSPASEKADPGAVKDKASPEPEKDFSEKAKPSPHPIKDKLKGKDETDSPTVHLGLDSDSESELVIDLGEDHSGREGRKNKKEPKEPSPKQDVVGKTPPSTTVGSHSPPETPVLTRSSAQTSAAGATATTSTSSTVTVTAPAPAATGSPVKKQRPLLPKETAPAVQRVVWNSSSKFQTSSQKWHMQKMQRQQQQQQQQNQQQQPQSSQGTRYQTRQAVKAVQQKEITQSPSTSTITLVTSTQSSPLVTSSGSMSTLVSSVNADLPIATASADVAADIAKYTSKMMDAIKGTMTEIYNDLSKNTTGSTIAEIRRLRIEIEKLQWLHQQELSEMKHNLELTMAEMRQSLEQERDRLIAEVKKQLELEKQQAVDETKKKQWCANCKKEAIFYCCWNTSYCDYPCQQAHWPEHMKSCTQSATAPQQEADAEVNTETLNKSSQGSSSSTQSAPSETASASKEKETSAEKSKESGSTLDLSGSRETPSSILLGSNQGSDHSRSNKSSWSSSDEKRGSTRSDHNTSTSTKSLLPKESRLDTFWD
# UniProt Q9H2Y7: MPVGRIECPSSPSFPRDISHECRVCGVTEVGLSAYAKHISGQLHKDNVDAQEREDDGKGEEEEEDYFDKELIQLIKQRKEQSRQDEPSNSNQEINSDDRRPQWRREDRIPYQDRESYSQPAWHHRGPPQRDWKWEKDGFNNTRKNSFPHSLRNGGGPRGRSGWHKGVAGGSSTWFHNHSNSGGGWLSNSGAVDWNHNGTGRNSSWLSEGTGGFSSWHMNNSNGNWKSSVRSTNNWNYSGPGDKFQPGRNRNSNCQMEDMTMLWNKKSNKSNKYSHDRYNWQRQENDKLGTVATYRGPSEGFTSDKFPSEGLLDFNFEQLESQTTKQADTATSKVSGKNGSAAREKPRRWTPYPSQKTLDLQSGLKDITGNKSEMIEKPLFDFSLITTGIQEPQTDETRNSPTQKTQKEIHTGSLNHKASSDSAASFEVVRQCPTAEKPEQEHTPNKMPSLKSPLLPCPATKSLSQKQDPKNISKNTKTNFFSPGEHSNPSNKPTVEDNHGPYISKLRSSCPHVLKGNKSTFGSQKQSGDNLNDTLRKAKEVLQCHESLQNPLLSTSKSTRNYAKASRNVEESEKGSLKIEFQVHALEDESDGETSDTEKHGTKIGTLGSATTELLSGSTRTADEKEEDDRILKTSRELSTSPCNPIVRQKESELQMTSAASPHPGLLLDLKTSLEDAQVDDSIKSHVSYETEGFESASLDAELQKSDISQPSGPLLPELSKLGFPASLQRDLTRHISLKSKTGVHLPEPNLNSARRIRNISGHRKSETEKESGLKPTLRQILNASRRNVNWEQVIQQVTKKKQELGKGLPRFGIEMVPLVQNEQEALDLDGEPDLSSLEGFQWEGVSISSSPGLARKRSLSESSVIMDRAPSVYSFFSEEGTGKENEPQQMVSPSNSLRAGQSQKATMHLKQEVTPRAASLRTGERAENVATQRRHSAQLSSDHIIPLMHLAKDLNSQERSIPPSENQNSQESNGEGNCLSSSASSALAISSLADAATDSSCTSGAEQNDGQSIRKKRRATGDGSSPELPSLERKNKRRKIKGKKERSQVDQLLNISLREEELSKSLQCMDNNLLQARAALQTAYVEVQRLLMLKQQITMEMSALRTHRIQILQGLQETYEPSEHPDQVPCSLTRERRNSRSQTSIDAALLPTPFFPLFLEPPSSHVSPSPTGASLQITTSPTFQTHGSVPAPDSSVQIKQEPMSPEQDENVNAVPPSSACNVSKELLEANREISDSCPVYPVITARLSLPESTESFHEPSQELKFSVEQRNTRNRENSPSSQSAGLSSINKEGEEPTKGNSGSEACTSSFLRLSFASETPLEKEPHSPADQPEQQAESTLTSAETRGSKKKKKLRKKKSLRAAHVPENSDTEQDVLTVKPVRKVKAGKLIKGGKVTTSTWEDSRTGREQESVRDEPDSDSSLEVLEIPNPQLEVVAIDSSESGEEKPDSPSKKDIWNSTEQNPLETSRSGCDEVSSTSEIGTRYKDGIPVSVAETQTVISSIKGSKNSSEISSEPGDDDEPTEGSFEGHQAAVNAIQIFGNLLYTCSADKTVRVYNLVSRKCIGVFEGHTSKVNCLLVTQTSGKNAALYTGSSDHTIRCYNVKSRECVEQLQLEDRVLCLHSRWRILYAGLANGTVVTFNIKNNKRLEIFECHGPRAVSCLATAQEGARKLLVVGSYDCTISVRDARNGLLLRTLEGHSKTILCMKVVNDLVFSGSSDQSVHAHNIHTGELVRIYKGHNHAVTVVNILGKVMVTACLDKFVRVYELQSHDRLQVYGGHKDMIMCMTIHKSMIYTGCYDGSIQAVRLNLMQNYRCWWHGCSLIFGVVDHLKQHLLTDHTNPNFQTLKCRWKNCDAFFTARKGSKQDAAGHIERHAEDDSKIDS
# UniProt O60281: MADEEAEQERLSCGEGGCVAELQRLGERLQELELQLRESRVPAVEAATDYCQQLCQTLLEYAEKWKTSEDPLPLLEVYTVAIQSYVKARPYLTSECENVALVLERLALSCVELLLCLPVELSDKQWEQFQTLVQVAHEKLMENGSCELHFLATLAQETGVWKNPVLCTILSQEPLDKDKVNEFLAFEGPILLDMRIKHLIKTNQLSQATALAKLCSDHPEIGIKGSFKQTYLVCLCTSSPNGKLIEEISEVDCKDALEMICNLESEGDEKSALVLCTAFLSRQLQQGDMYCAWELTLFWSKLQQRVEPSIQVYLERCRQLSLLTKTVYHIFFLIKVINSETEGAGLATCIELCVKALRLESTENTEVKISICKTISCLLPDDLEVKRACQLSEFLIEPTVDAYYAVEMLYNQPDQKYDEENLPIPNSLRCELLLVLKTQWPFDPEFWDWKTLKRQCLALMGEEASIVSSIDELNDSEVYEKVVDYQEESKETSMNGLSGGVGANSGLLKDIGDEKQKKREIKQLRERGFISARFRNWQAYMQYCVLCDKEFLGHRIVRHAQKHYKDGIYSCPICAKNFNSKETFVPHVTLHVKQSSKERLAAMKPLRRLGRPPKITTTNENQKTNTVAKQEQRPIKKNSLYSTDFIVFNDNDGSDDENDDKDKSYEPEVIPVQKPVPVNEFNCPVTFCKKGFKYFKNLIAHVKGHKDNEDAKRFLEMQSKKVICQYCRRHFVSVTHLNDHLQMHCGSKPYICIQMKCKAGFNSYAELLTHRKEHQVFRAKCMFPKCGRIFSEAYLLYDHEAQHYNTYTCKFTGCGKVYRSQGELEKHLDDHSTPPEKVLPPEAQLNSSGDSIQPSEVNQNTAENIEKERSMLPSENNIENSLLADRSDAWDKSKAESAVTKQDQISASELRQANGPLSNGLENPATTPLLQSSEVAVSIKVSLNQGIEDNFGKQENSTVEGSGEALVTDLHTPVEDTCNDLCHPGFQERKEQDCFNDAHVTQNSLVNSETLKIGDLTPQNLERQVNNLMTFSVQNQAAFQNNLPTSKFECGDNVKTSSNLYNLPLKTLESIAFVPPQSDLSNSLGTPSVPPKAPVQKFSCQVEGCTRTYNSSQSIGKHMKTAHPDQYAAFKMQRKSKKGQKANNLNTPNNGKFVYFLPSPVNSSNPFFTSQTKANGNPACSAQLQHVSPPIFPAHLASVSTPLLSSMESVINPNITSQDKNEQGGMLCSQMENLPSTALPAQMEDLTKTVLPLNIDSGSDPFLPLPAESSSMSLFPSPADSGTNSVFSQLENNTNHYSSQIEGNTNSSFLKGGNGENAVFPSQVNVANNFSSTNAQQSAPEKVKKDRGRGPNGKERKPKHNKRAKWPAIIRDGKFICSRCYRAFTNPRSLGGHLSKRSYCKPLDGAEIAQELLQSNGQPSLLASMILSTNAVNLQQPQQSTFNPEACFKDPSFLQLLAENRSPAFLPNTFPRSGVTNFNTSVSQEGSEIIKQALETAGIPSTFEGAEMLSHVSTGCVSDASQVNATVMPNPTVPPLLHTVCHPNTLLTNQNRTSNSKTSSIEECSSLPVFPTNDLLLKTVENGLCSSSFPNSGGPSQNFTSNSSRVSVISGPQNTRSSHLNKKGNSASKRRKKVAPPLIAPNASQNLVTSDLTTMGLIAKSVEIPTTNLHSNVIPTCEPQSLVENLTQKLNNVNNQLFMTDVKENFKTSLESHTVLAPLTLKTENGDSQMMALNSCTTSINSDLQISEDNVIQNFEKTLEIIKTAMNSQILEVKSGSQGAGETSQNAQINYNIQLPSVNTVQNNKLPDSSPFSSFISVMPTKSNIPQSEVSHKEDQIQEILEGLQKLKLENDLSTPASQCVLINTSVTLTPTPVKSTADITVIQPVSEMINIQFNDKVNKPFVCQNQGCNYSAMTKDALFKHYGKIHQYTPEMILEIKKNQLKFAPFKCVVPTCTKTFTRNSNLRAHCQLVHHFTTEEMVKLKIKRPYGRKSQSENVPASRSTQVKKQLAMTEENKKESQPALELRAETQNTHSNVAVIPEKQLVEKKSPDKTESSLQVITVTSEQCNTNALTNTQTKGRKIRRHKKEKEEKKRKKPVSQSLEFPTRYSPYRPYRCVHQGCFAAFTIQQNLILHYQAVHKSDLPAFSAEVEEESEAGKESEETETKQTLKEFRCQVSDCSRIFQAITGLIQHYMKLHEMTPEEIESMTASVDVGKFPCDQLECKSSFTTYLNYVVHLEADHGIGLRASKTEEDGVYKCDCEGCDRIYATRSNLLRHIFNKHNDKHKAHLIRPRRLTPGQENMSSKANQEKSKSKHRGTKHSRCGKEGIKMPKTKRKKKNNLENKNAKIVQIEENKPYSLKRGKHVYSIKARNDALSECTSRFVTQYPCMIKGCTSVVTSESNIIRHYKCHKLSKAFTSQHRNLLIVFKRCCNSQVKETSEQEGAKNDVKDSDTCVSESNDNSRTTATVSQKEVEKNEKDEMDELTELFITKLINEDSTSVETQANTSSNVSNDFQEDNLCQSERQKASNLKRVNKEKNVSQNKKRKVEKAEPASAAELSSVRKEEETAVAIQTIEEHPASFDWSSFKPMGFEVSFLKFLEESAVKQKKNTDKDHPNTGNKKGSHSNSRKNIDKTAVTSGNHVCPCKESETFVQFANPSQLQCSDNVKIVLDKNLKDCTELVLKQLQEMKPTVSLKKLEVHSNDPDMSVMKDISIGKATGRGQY
# The list shows a part of the results.
# Compound: CC1Cc2ccccc2N1C(=O)C1CCCN(C1)C(=O)CCl (mixture of isomers) [TRIM25 ligand 11 (diastereomer mixture)]
# Assay: probe-labelled cysteine peptide fold change vs DMSO (competition) (log2 fold change); higher = less target engagement (more negative = stronger competition)
# Details: 10 µM; THP-1; incubation time: 4 h
# 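Further: competitive chemoproteomic profiling in live THP-1 cells with an iodoacetamide desthiobiotin (IA-DTB) probe, comparing probe-labelled peptide intensities in compound-treated cells against DMSO-treated controls.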
row,Target,probe-labelled cysteine peptide fold change
1,ZMYND11_Q15326_249+258_DTCHELDELQLCK (UniProt Q15326),0.155
2,ZNF330_Q9Y3S2_109_HAGVYSTGLAMVGAICDFCEAWVCHGR (UniProt Q9Y3S2),0.327
3,ZNF668_Q96K58_198_THAGLRPYSCER (UniProt Q96K58),0.131
4,ZFAND3_Q9H8U3_181_CGYVFCMLHR (UniProt Q9H8U3),-0.0979
5,ZMYND11_Q15326_347_ACDELELHQR (UniProt Q15326),0.0457
6,ZNF644_Q9H582_1233_MDLTMHSALDCK (UniProt Q9H582),-0.102
7,ZMYND8_Q9ULU4_103_EGQVLCCELCPR (UniProt Q9ULU4),0.179
8,ZMYND8_Q9ULU4_91_NDFYCWVCHR (UniProt Q9ULU4),0.0216
9,ZFPL1_O95159_230_DDDRTPGLHGDCDDDK (UniProt O95159),-0.0658
10,ZNF691_Q5VV52_232_THLEPAPYICCECGK (UniProt Q5VV52),-0.283
11,ZNF106_Q9H2Y7_1576_VNCLLVTQTSGK (UniProt Q9H2Y7),0.121
12,ZNF195_O14628_195_DWESLDECK (UniProt O14628),-0.189
13,ZFYVE19_Q96K21_435_CAGCDGDLFCAR (UniProt Q96K21),-0.0741
14,ZNF292_O60281_2260_CDCEGCDR (UniProt O60281),0.0787
15,ZNF592_Q92610_790_ENCLHYAR (UniProt Q92610),0.0187
16,ZFR_Q96KR1_391_CELCDVSCTGADAYAAHIR (UniProt Q96KR1),-0.000822
17,ZNF512_Q96ME7_442_CLLCQK (UniProt Q96ME7),0.166
18,ZNF114_Q8NC26_51_NLAFIDWATPCK (UniProt Q8NC26),-0.0959
19,ZNF649_Q9BS31_183_AHECTDCGK (UniProt Q9BS31),0.0798
20,ZNF101_Q8IZC7_321_CPTSLQAHER (UniProt Q8IZC7),0.124
21,ZNF14_P17017_42_NLVCLGK (UniProt P17017),-0.0998
22,ZNF646_O15015_1193_GCQTEASSERPFSCEVCGR (UniProt O15015),-0.214
23,ZNF106_Q9H2Y7_1307_GNSGSEACTSSFLR (UniProt Q9H2Y7),-0.265
